Holding throughout (assay): split reporter
The target in test [1] is T1, HSI2-LIKE1 (HSL1), BiFC fusion (Arabidopsis thaliana) (UniProt Q5CCK4).
T1 sequence: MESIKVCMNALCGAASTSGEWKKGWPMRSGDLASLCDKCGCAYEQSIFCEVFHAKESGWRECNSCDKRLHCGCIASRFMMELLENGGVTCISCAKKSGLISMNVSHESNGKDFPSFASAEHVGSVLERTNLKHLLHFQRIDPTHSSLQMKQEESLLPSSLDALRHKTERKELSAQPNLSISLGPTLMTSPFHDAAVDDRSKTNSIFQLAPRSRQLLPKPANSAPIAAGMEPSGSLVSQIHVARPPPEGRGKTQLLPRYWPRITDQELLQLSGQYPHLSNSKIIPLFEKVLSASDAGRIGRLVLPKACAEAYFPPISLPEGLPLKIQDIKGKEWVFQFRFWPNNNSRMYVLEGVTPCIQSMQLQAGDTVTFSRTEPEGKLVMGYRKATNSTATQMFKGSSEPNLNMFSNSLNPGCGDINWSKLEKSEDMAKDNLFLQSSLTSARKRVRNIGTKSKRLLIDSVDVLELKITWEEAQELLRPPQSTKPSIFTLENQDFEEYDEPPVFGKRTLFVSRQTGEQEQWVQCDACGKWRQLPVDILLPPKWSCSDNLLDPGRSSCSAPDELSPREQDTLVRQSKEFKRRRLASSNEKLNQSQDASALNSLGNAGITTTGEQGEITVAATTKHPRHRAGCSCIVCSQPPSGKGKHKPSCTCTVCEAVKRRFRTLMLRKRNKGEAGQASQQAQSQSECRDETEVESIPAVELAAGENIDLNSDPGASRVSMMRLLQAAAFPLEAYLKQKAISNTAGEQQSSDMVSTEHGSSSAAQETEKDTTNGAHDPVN

Sequences of proteins named here, by UniProt entry; tags and fusion partners are left off. A change or cut given only in a name is not applied to a line headed by its entry.
UniProt Q8W4L5: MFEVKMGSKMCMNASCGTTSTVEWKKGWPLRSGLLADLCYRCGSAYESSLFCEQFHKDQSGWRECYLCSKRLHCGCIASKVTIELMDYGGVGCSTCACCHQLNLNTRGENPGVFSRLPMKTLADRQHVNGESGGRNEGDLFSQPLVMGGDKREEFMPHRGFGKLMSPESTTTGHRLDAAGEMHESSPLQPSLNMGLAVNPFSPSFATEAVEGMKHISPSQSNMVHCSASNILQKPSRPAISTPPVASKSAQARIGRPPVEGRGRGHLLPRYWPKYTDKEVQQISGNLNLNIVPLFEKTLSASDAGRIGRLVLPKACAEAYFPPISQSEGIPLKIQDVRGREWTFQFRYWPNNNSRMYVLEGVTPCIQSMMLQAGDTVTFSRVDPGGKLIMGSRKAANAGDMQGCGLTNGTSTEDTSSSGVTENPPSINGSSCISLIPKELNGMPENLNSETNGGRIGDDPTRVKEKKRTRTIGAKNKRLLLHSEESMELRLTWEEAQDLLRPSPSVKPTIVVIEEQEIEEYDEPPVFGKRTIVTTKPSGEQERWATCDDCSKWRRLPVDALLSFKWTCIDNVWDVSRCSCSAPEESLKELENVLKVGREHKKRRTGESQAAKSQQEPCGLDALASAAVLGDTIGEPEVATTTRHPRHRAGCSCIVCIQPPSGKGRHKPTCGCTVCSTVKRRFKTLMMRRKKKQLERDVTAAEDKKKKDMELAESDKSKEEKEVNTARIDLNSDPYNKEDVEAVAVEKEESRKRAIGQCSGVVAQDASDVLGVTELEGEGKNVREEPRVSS

The target of test [2] is B3 domain of HSL1 (B3_(HSL1)), BiFC fusion (Arabidopsis thaliana).
Test [3] has as its target B3 domain of HSI2 (B3_(HSI2)), BiFC fusion (Arabidopsis thaliana).

No constants are given. Whether binding was seen depends on the method and setting. Binding seen in cells or lysates may run through a third protein. Binding can be weak; no strength is given. Where a sequence is shown, tags or fusion partners need not be part of it.

On to “HSI2mB3 (HSI2 with a mutated B3 domain), BiFC fusion (from UniProt Q8W4L5)”, for which, in test [1], the binding result was “binds”.

B1: LIKE HETEROCHROMATIN PROTEIN1 (LHP1), BiFC fusion (protein, UniProt Q946J8 1-445)
chain: MKGASGAVKKKPQVLNEAGEAETAVETVGESRKISGDGGFGSDDGGGGGGGGSGESILREIGDDRPTEDGDEEEEEDEDEDDGGDEEDEEGEGEGGQEERPKLDEGFYEIEAIRRKRVRKGKVQYLIKWRGWPETANTWEPLENLQSIADVIDAFEGSLKPGKPGRKRKRKYAGPHSQMKKKQRLTSTSHDATEKSDSSTSLNNSSLPDIPDPLDLSGSSLLNRDVEAKNAYVSNQVEANSGSVGMARQVRLIDNEKEYDPTLNELRGPVNNSNGAGCSQGGGIGSEGDNVRPNGLLKVYPKELDKNSRFIGAKRRKSGSVKRFKQDGSTSNNHTAPTDQNLTPDLTTLDSFGRIARMGNEYPGVMENCNLSQKTKIEELDITKILKPMSFTASVSDNVQEVLVTFLALRSDGKEALVDNRFLKAHNPHLLIEFYEQHLKYNRTP
As for B1, the binding entry in test [2] and in test [3] was “binds” throughout.

Source of the values: paper doi:10.1101/2019.12.20.885392.
